For test [1], the target named is GST-snapin fusion protein (not stated (worker bees)). In words: pull-down; GST pull-down: purified GST-snapin on glutathione agarose beads (4°C, 3 h), then overnight at 4°C with 0.1 mg/ml His-VP2; western blot with anti-His antibody; GST as negative control; both purified. On the technique in general: Immunoblotting shows a protein as a band on a membrane.
The target in test [2] is snapin-Flag (not stated (worker bees)). In words: co-IP; BHK cells co-transfected with pTT5-VP2-His and pTT5-snapin-Flag, 48 h; lysate precipitated with Flag-tagged antibody and Protein A/G Plus-Agarose at 4°C; western blot with anti-His and anti-Flag.

These are yes or no findings as the source states them, for the method shown. A result given as binding can be weak or reduced; the word gives no strength. Tags and fused reporters may be left off the sequences shown. For some assays here: Binding seen in cells or lysates may run through a third protein.

B1: His-VP2 (protein, UniProt Q8B3M2 212-464)
chain: MDNPNPGPDGEGEVELEKDSNVVLTTQRDPSTSIPAPVSVKWSRWTSNDVVDDYATITSRWYQIAEFVWSKDDPFDKELARLILPRALLSSIEANSDAICDVPNTIPFKVHAYWRGDMEVRVQINSNKFQVGQLQATWYYSDHENLNISSKRSVYGFSQMDHALISASASNEAKLVIPYKHVYPFLPTRIVPDWTTGILDMGALNIRVIAPLRMSATGPTTCNVVVFIKLNNSEFTGTSSGKFYASQIRAKPE
On to B1, for which, in test [1], the binding entry is given as “binds”.

B2: VP2-His (protein, UniProt Q8B3M2 212-464)
chain: B1 chain
On to B2, for which, in test [2], the binding entry is “binds”.
